System: Vascular smooth muscle (BO54) cells
Format: cell-based, baboon

SMILES: CN[C@@H]1C[C@H]2O[C@@](C)([C@@H]1OC)n1c3ccccc3c3c4c(c5c6ccccc6n2c5c31)C(=O)NC4 [staurosporin]
- DNA synthesis inhibition compared with protein synthesis inhibition: to a greater extent than they inhibited protein synthesis

From patent US6663881B2 (priority 1993, dated 2003)
